# Measured values from article doi:10.1101/2022.04.08.487705.
# Amino acid sequences for entries named in this document (tags omitted). Residues count along the entry.
# UniProt O08852, residues 24-4293: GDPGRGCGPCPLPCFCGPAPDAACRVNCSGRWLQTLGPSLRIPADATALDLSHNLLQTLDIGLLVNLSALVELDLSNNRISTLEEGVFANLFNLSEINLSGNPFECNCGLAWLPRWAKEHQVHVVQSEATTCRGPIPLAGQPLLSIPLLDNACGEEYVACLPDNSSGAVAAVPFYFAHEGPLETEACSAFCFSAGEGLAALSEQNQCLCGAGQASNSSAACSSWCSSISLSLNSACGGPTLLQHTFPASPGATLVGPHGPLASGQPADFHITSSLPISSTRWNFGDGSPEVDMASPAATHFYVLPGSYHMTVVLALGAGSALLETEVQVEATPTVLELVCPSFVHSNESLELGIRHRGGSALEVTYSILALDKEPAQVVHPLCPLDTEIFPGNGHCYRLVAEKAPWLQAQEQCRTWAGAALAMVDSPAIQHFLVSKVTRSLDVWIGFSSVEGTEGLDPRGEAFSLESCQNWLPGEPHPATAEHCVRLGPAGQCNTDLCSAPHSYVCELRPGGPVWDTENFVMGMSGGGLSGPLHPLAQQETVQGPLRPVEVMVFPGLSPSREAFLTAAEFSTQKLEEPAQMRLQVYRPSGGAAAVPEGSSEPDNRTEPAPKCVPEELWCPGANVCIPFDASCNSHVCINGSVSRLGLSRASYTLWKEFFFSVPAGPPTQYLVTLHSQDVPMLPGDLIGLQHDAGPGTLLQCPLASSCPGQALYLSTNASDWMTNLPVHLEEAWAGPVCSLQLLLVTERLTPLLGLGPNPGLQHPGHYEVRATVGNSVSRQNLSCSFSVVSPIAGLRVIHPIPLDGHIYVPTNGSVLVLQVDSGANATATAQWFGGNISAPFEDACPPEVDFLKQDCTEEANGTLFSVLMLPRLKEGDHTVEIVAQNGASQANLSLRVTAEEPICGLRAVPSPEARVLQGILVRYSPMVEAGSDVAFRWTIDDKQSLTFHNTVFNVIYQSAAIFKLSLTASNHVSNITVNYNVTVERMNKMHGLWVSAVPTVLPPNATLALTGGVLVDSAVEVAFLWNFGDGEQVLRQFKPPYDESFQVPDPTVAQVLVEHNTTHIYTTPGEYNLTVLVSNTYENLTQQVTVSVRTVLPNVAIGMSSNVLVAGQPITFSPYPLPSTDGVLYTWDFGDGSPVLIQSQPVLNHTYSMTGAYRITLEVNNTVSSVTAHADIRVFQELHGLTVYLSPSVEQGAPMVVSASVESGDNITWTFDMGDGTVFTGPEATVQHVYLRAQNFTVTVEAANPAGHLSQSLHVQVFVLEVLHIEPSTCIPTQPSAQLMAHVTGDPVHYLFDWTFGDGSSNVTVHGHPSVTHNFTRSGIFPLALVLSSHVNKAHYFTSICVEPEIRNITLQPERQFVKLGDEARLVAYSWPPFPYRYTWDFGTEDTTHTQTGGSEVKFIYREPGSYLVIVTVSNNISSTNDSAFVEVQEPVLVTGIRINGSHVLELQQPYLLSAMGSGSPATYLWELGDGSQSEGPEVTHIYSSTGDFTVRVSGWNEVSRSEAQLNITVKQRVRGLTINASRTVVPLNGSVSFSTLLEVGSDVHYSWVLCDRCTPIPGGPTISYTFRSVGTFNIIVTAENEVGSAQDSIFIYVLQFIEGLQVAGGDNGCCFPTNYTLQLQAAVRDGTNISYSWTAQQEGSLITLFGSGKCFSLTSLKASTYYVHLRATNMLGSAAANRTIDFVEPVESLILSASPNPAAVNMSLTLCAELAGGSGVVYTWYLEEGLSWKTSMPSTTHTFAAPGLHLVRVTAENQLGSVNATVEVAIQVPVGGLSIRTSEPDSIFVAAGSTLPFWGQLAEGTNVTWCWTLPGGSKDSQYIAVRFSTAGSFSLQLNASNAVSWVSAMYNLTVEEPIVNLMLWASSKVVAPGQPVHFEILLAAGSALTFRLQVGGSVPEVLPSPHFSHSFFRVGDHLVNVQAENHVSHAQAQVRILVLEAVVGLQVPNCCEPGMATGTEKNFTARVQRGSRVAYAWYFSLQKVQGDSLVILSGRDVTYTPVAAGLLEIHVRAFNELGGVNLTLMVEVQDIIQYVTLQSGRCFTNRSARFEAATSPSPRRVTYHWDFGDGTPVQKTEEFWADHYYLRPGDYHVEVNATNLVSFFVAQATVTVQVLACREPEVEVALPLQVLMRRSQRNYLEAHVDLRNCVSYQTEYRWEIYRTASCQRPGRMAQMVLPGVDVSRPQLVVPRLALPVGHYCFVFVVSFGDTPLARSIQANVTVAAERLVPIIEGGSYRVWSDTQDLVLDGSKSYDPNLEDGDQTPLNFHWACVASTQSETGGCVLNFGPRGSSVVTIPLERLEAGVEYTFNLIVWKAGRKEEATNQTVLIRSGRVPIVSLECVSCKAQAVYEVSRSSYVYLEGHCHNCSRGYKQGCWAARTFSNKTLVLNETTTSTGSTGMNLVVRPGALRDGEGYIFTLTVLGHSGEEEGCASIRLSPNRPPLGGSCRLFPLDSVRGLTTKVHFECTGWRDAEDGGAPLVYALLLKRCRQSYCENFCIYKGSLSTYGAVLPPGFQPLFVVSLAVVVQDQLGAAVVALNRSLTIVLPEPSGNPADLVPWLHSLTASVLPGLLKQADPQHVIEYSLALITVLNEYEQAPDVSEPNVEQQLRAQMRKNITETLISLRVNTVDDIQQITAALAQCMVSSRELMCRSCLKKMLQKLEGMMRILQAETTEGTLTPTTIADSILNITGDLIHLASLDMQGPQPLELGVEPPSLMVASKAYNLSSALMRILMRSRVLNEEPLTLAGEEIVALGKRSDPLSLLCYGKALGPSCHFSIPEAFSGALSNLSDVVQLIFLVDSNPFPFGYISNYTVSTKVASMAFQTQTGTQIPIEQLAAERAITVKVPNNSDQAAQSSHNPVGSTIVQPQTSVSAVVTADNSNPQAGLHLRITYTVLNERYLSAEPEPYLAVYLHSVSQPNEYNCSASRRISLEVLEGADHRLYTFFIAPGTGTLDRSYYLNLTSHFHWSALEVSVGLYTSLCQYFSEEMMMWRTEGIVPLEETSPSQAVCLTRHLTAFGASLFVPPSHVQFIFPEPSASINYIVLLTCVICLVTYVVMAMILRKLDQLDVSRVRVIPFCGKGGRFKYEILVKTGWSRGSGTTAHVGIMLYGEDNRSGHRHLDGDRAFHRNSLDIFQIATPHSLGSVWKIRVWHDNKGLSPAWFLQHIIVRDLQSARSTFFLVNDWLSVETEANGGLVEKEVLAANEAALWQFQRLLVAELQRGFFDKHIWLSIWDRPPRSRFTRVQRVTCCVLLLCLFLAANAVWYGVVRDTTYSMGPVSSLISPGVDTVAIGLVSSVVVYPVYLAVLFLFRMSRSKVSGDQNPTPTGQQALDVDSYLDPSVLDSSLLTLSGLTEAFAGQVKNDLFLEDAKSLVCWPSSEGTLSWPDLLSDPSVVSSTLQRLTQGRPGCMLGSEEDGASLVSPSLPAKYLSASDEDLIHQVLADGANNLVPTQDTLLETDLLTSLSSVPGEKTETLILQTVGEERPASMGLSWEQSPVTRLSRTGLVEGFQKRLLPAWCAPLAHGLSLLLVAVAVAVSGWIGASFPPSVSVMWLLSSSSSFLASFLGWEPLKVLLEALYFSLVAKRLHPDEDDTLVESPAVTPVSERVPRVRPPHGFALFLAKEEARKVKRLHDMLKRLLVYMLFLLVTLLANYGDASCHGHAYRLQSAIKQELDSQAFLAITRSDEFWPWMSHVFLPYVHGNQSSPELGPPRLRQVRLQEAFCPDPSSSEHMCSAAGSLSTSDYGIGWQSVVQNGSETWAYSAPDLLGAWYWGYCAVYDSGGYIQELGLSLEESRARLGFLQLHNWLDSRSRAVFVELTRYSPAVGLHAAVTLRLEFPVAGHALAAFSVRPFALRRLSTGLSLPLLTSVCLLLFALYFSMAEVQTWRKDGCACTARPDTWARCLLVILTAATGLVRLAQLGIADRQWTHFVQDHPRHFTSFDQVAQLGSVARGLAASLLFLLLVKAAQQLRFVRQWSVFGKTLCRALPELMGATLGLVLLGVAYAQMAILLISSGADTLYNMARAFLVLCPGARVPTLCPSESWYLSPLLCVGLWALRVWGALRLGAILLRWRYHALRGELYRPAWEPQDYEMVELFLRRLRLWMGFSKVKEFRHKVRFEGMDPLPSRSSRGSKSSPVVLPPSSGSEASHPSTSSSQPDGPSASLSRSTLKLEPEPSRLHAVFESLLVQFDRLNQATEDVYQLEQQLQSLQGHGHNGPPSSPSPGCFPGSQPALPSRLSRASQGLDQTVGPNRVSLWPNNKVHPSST
# These are yes or no findings as the source states them, for the method shown. Binding seen in cells or lysates may run through a third protein. Here binding means that the protein was enriched with, or labelled near, the bait; the list need not be complete.
# Biological target: tagged polycystin-1 (PC1-eGFP), product of the Pkd1^eGFP knock-in allele (mouse) (UniProt O08852)
# Experiment: affinity purification with mass spectrometry
binder,measurement,value
"nicotinamide nucleotide transhydrogenase (Nnt) (protein, UniProt Q61941 44-1086) CKSPVKPGIPYKQLTVGVPKEIFQNEKRVALSPAGVQALVKQGFNVVVESGAGEASKFPDDLYRAAGAQIQGMKEVLASDLVVKVRAPMVNPTLGAHEADFLKPSGTLISFIYPAQNPDLLNKLSERKTTVLAMDQVPRVTIAQGYDALSSMANISGYKAVVLAANHFGRFFTGQITAAGKVPPAKILIVGGGVAGLASAGAAKSMGAVVRGFDTRAAALEQFKSLGAEPLEVDLKESGEGQGGYAKEMSKEFIEAEMKLFAQQCKEVDILISTALIPGKKAPVLFSKEMIESMKEGSVVVDLAAEAGGNFETTKPGELYVHKGITHIGYTDLPSRMATQASTLYSNNITKLLKAISPDKDNFHFEVKDDFDFGTMSHVIRGTVVMKDGKVIFPAPTPKNIPEEAPVKPKTVAELEAEKAGTVSMYTKTLTTASVYSAGLTGMLGLGIVAPNVAFSQMVTTFGLAGIIGYHTVWGVTPALHSPLMSVTNAISGLTAVGGLALMGGHFYPSTTSQSLAALATFISSVNIAGGFLVTQRMLDMFKRPTDPPEYNYLYLLPGGTFVGGYLAALYGGYNIEEIMYLGSGLCCVGALGGLSTQGTARLGNALGMIGVAGGLAATLGGLKPDPQLLAQMSGAMAMGGTIGLTIAKRIQISDLPQLVAAFHSLVGLAAVLTCMAEYIVEYPHFAMDATSNFTKIVAYLGTYIGGVTFSGSLVAYGKLQGILKSAPLLLPGRHALNAGLLAASVGGIIPFMADPSFTTGITCLGSVSGLSTLMGVTLTAAIGGADMPVVITVLNSYSGWALCAEGFLLNNNLLTIVGALIGSSGAILSYIMCVAMNRSLANVILGGYGTTSTAGGKPMEISGTHTEINLDNAVEMIREANSIVITPGYGLCAAKAQYPIADLVKMLTEQGKKVRFGIHPVAGRMPGQLNVLLAEAGVPYDIVLEMDEINSDFPDTDLVLVIGANDTVNSAAQEDPNSIIAGMPVLEVWKSKQVIVMKRSLGVGYAAVDNPIFYKPNTAMLLGDAKKTCDALQAKVRESYQK",binding,binds
